PMC7862700
This is a selection; strong and weak results do not stand in their true shares. At the low end of the ranking the order means little.

Assays:
Test in all cases: DAPPL (digital affinity profiling via proximity ligation, sequencing)
Settings in all cases: 10 mM Tris-HCl pH 7.5, 50 mM NaCl, 1 mM DTT, 4% glycerol, room temperature, 30 min; GST-TFs on glutathione beads, 16-mer random dsDNA library, 0.1% …; high values mean tight binding; double strand, one strand shown; scale: fold enrichment (6-mer frequency, TF over GST control)
ELK1 = molecular target: T1, ELK1 (UniProt P19419)
T1 sequence: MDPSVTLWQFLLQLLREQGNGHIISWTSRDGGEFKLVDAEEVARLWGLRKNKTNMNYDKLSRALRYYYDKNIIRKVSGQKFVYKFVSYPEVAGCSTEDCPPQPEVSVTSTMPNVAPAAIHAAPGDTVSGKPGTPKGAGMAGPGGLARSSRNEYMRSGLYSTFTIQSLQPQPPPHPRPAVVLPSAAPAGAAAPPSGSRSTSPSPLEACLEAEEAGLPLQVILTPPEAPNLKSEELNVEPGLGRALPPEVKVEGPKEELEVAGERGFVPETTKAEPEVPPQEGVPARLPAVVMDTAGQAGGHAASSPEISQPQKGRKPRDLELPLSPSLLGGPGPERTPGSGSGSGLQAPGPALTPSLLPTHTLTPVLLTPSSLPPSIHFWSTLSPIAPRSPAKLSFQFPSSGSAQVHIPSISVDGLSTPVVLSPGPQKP

ELK3 = molecular target: T2, ELK3 (UniProt P41970)
T2 sequence: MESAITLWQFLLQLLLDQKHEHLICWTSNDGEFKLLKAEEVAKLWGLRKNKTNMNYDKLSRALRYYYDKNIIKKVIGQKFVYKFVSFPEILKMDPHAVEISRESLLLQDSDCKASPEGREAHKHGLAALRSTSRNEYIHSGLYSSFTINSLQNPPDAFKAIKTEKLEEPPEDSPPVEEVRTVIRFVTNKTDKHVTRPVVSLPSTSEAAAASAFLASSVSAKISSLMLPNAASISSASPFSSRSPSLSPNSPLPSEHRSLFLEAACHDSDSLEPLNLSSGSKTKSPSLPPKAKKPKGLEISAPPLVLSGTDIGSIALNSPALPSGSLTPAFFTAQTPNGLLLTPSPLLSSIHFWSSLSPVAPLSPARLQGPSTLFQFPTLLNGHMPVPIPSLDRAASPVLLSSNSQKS

SPIC = molecular target: T3, SPIC (UniProt Q8N5J4)
T3 sequence: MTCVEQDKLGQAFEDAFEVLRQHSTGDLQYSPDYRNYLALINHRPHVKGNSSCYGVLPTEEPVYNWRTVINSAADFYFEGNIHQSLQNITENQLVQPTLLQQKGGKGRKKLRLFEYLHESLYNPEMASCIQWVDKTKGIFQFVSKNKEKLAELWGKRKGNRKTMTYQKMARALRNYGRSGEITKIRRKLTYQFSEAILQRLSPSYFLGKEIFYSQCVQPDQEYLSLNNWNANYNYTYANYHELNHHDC

ETS2 = molecular target: T4, ETS2 (UniProt P15036)
T4 sequence: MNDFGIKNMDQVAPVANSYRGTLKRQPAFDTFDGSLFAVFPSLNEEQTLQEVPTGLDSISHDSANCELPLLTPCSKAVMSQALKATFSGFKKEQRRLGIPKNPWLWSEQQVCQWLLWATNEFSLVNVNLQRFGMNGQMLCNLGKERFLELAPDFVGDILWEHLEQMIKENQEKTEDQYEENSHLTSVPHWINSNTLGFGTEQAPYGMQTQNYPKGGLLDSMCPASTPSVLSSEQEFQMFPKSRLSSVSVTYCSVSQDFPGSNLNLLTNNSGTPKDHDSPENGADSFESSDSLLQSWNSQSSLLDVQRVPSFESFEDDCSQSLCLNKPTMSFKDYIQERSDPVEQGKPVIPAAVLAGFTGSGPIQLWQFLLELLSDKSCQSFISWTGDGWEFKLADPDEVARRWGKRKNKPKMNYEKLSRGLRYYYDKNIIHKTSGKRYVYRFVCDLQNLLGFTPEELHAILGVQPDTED

ETV3 = molecular target: T5, ETV3 (UniProt P41162-2)
T5 sequence: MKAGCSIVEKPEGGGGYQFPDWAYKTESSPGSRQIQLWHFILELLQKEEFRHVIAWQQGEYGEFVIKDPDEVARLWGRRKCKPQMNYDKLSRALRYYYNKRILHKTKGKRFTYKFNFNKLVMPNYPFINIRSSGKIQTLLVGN

Row | Sequence | binding signal (ELK1) | binding signal (ELK3) | binding signal (SPIC) | binding signal (ETS2) | binding signal (ETV3)
1 | CAGACA | 0.81 | 0.723 | 0.803 | 0.804 | 0.822
2 | CTGTGA | 0.508 | 0.459 | 0.494 | 0.525 | 0.434
3 | GTCGGT | 0.281 | 0.306 | 0.264 | 0.3 | 0.276
4 | GCAGTC | 0.482 | 0.5 | 0.474 | 0.464 | 0.502
5 | GAGTCC | 0.406 | 0.426 | 0.387 | 0.391 | 0.398
6 | CGGGGT | 0.573 | 0.613 | 0.671 | 0.675 | 0.639
7 | AGTGAG | 0.253 | 0.26 | 0.251 | 0.253 | 0.275
8 | CGAGTG | 0.833 | 0.74 | 0.822 | 0.792 | 0.709
9 | AGACTG | 0.515 | 0.546 | 0.457 | 0.522 | 0.562
10 | GTAGGT | 0.859 | 0.836 | 0.964 | 0.767 | 0.876
11 | CCGTCG | 0.892 | 0.819 | 0.686 | 0.833 | 0.789
12 | CGGGAA | 0.802 | 0.741 | 0.835 | 0.755 | 0.783
13 | TCGGAA | 0.56 | 0.588 | 0.528 | 0.57 | 0.597
14 | GAACGC | 0.797 | 0.781 | 0.855 | 0.735 | 0.733
15 | AGAGTT | 0.872 | 0.783 | 0.667 | 0.838 | 0.771
16 | GTCGAA | 0.629 | 0.632 | 0.598 | 0.645 | 0.605
17 | AAAGTG | 0.939 | 0.953 | 0.798 | 0.902 | 0.902
18 | GTGAGT | 0.122 | 0.119 | 0.134 | 0.131 | 0.137
19 | GAATCG | 0.595 | 0.644 | 0.59 | 0.65 | 0.716
20 | GAGCCT | 0.858 | 0.804 | 0.705 | 0.819 | 0.861
21 | GGGAAG | 0.798 | 0.884 | 0.973 | 0.895 | 0.841
22 | GCAAGG | 0.814 | 0.793 | 0.831 | 0.842 | 0.793
23 | CTGGAG | 0.638 | 0.663 | 0.749 | 0.633 | 0.658
24 | GCGCAA | 0.853 | 0.804 | 0.847 | 0.815 | 0.856
25 | TGAGGA | 0.692 | 0.66 | 0.631 | 0.721 | 0.695
26 | GTAGAC | 0.756 | 0.754 | 0.794 | 0.763 | 0.713
27 | GCACAG | 0.747 | 0.725 | 0.786 | 0.772 | 0.743
28 | CCGTTG | 0.92 | 0.981 | 0.861 | 0.837 | 0.859

Row | Sequence | binding signal (ELK1) | binding signal (ELK3) | binding signal (SPIC) | binding signal (ETS2) | binding signal (ETV3)
29 | AGCGGA | 0.794 | 0.83 | 0.794 | 0.832 | 0.829
30 | GAGGTG | 0.514 | 0.495 | 0.563 | 0.503 | 0.498
31 | ATCGGA | 0.399 | 0.44 | 0.452 | 0.432 | 0.438
32 | GCTGTG | 0.609 | 0.699 | 0.72 | 0.792 | 0.703
33 | CCCAGT | 0.64 | 0.65 | 0.609 | 0.606 | 0.609
34 | TGGAGT | 0.516 | 0.514 | 0.524 | 0.555 | 0.516
35 | CGGAGA | 0.203 | 0.237 | 0.2 | 0.211 | 0.209
36 | AGGCGT | 0.523 | 0.528 | 0.539 | 0.485 | 0.454
37 | GAGGTA | 0.746 | 0.633 | 0.461 | 0.646 | 0.693
38 | GCAAGT | 0.809 | 0.896 | 0.728 | 0.877 | 0.856
39 | GAGGGG | 0.498 | 0.515 | 0.581 | 0.547 | 0.481
40 | AGTAGA | 0.771 | 0.738 | 0.805 | 0.793 | 0.749
41 | AGGCGG | 0.245 | 0.241 | 0.255 | 0.24 | 0.256
42 | GACGGC | 0.787 | 0.739 | 0.822 | 0.818 | 0.777
43 | AGACGA | 0.642 | 0.709 | 0.694 | 0.765 | 0.626
44 | TAGCCA | 0.832 | 0.919 | 0.866 | 0.825 | 0.809
45 | GCGTAG | 0.738 | 0.716 | 0.724 | 0.741 | 0.756
46 | GAGTGG | 0.563 | 0.56 | 0.465 | 0.626 | 0.571
47 | AAAGGA | 0.826 | 0.807 | 0.811 | 0.83 | 0.933
48 | ACCGGG | 0.491 | 0.476 | 0.55 | 0.504 | 0.475
49 | AGAAAG | 0.845 | 0.835 | 0.905 | 0.902 | 0.865
50 | GCGAGT | 0.505 | 0.599 | 0.54 | 0.55 | 0.563
51 | GGTCAG | 0.523 | 0.535 | 0.59 | 0.562 | 0.553
52 | GGCCAG | 0.445 | 0.522 | 0.418 | 0.435 | 0.449
53 | CTGAGT | 0.589 | 0.543 | 0.646 | 0.582 | 0.664
54 | GGCGGT | 0.421 | 0.439 | 0.454 | 0.41 | 0.412
55 | TGTCGG | 0.344 | 0.318 | 0.391 | 0.362 | 0.341

Copied from the list:
binding signal (ELK3) with TAGCCA is entered as 0.919
binding signal (ETV3) with GCAAGT is entered as 0.856
binding signal (SPIC) with GGCGGT is entered as 0.454
